{"source": "ChEMBL document CHEMBL4513141", "about": "“CO-ADD screening of NIH (USA) - Clinical Collection” (2021)", "note": "The list shows a part of the results. Results with a measured potency or affinity are listed apart.", "data": [{"system": "Acinetobacter baumannii", "conditions": "Concentration 20 uM; ASSAY_TEST Inhibition of Bacterial Growth; detection method Absorption (OD600); MEDIA CAMHB; plate type 384well; NBS; CORNING #3640; time 18 hr", "units": {"Inhibition": "%"}, "values": [{"molecule": "CC(=O)OCC(=O)[C@@]1(O)CC[C@H]2[C@@H]3CCC4=CC(=O)C=C[C@]4(C)[C@H]3[C@@H](O)C[C@@]21C", "note": "[PREDNISOLONE ACETATE]", "Inhibition": 25.62}, {"molecule": "Oc1ncc(F)cn1", "Inhibition": 29.89}, {"molecule": "COC(=O)C1=C(C)NC(C)=C(C(=O)OCCN(C)Cc2ccccc2)C1c1cccc([N+](=O)[O-])c1.Cl", "note": "(centres undefined) [NICARDIPINE HYDROCHLORIDE]", "Inhibition": 9.21}, {"molecule": "CCC(=O)[N-]S(=O)(=O)c1ccc(-c2c(-c3ccccc3)noc2C)cc1.[Na+]", "note": "[PARECOXIB SODIUM]", "Inhibition": 9.28}, {"molecule": "CC(C)(C(=O)O)c1ccc(C(O)CCCN2CCC(C(O)(c3ccccc3)c3ccccc3)CC2)cc1.Cl", "note": "(centres undefined) [FEXOFENADINE HYDROCHLORIDE]", "Inhibition": 26.33}, {"molecule": "CN1CCN(CC/C=C2/c3ccccc3Sc3ccc(S(=O)(=O)N(C)C)cc32)CC1", "note": "[THIOTHIXENE]", "Inhibition": 8.44}, {"molecule": "CN(C)CC/C=C1/c2ccccc2COc2ccc(CC(=O)O)cc21.Cl", "note": "[OLOPATADINE HYDROCHLORIDE]", "Inhibition": 3.87}, {"molecule": "CC1=C(C(=O)O)N2C(=O)[C@@H](NC(=O)[C@H](N)c3ccccc3)[C@H]2SC1.O", "note": "[CEPHALEXIN]", "Inhibition": 9.65}, {"molecule": "C=C(CC)C(=O)c1ccc(OCC(=O)O)c(Cl)c1Cl", "note": "[ETHACRYNIC ACID]", "Inhibition": 27.96}, {"molecule": "CCC(C)(C)/N=C(\\NC#N)Nc1cccnc1", "Inhibition": 11.34}, {"molecule": "C[C@]12C[C@H](O)[C@H]3[C@@H](CCC4=CC(=O)CC[C@@]43C)[C@@H]1CC[C@@H]2C(=O)CO", "note": "[CORTICOSTERONE]", "Inhibition": 27.36}, {"molecule": "CC(CCCCC(=O)Nc1ccc(C(F)(F)F)cc1)NCCc1c[nH]cn1.O=C(O)/C=C\\C(=O)O.O=C(O)/C=C\\C(=O)O", "note": "(centres undefined)", "Inhibition": 8.6}, {"molecule": "O=C(O)CCc1nc(-c2ccccc2)c(-c2ccccc2)o1", "note": "[OXAPROZIN]", "Inhibition": 21.17}, {"molecule": "CCN(CC)CCNC(=O)c1cc(Cl)c(N)cc1OC.Cl", "Inhibition": 16.26}, {"molecule": "Clc1ccc2c(c1)C(N1CCNCC1)=Nc1ccccc1O2", "note": "[AMOXAPINE]", "Inhibition": 16.77}, {"molecule": "CCCSc1ccc2[nH]c(NC(=O)OC)nc2c1", "note": "[ALBENDAZOLE]", "Inhibition": 18.94}, {"molecule": "Cc1ccc(N(CC2=NCCN2)c2cccc(O)c2)cc1", "note": "[PHENTOLAMINE]", "Inhibition": 34.66}, {"molecule": "O=C1N[C@H](C(=O)O)CS1", "note": "[PROCYSTEINE]", "Inhibition": 17.69}, {"molecule": "C[C@H](N[C@@H](CCc1ccccc1)C(=O)O)C(=O)N1CCC[C@H]1C(=O)O", "note": "[ENALAPRILAT ANHYDROUS]", "Inhibition": 11.14}, {"molecule": "COC(=O)[C@H](c1ccccc1Cl)N1CCc2sccc2C1", "note": "[CLOPIDOGREL]", "Inhibition": 23.6}, {"molecule": "CCOC(=O)N1CCC(=C2c3ccc(Cl)cc3CCc3cccnc32)CC1", "note": "[LORATADINE]", "Inhibition": 12.99}, {"molecule": "O=C1C(c2c(O)[nH]c3ccccc23)=Nc2ccccc21", "Inhibition": 27.29}, {"molecule": "Sc1ncnc2nc[nH]c12", "note": "[MERCAPTOPURINE ANHYDROUS]", "Inhibition": 19.41}, {"molecule": "O=C1C(CC[S+]([O-])c2ccccc2)C(=O)N(c2ccccc2)N1c1ccccc1", "note": "(centres undefined) [SULFINPYRAZONE]", "Inhibition": 24.87}, {"molecule": "CS(=O)(=O)O.Oc1ccc(C2CNCCc3c2cc(O)c(O)c3Cl)cc1", "note": "(centres undefined) [FENOLDOPAM MESYLATE]", "Inhibition": 18.57}, {"molecule": "CCC(C)(C)C(=O)O[C@H]1C[C@@H](C)C=C2C=C[C@H](C)[C@H](CC[C@@H]3C[C@@H](O)CC(=O)O3)[C@H]21", "note": "[SIMVASTATIN]", "Inhibition": 12.35}, {"molecule": "O=C(O[C@H]1[C@H](Oc2ccccc2COC(=O)C2(O)C=CCCC2=O)O[C@H](CO)[C@@H](O)[C@@H]1O)c1ccccc1", "note": "(some centres undefined) [TREMULACIN]", "Inhibition": 8.18}, {"molecule": "Nc1ccc(O)c(C(=O)O)c1", "note": "[MESALAMINE]", "Inhibition": 6.42}, {"molecule": "O=C([O-])c1cc(=O)c2c(OCC(O)COc3cccc4oc(C(=O)[O-])cc(=O)c34)cccc2o1.[Na+].[Na+]", "note": "[CROMOLYN SODIUM]", "Inhibition": 20.97}, {"molecule": "CN1CCN(CCCN2c3ccccc3Sc3ccc(C(F)(F)F)cc32)CC1.Cl.Cl", "note": "[TRIFLUOPERAZINE HYDROCHLORIDE]", "Inhibition": 24.27}, {"molecule": "CN(CCOc1ccc(NS(C)(=O)=O)cc1)CCc1ccc(NS(C)(=O)=O)cc1", "note": "[DOFETILIDE]", "Inhibition": 28.46}, {"molecule": "CCN(CC)CCOC(=O)C1(C2CCCCC2)CCCCC1.Cl", "note": "[DICYCLOMINE HYDROCHLORIDE]", "Inhibition": 27.79}, {"molecule": "COc1ccnc(C[S+]([O-])c2nc3cc(OC(F)F)ccc3[n-]2)c1OC.O.[Na+]", "note": "(centres undefined) [PANTOPRAZOLE SODIUM]", "Inhibition": 25.84}, {"molecule": "CC1(C)O[C@@H]2C[C@H]3[C@@H]4C[C@H](F)C5=CC(=O)C=C[C@]5(C)[C@@]4(F)[C@@H](O)C[C@]3(C)[C@]2(C(=O)CO)O1", "note": "[FLUOCINOLONE ACETONIDE]", "Inhibition": 12.58}, {"molecule": "C=CCc1ccc(O)c(-c2ccc(O)c(CC=C)c2)c1", "note": "[HONOKIOL]", "Inhibition": 25.67}, {"molecule": "CC(C)C[C@H](NC(=O)[C@@H](O)[C@H](N)Cc1ccccc1)C(=O)O", "note": "[UBENIMEX]", "Inhibition": 16.7}, {"molecule": "Nc1c2c(nc3c1CCC3)CCCC2", "note": "[IPIDACRINE]", "Inhibition": 27.58}, {"molecule": "CCc1cc(C(N)=S)ccn1", "note": "[ETHIONAMIDE]", "Inhibition": 16.23}, {"molecule": "CNCCC=C1c2ccccc2CCc2ccccc21.Cl", "note": "[NORTRIPTYLINE HYDROCHLORIDE]", "Inhibition": 22.47}, {"molecule": "CNC(=C[N+](=O)[O-])NCCSCc1csc(CN(C)C)n1", "note": "[NIZATIDINE]", "Inhibition": 30.24}, {"molecule": "COc1cc(C)nc(-n2nc(C)cc2OC)n1", "note": "[EPIRIZOLE]", "Inhibition": 11.15}, {"molecule": "Cl.O=C1c2c(O)ccc(O)c2C(=O)c2c(NCCNCCO)ccc(NCCNCCO)c21", "Inhibition": 34.55}, {"molecule": "CCCc1nc(C)c2c(O)nc(-c3cc(S(=O)(=O)N4CCN(CC)CC4)ccc3OCC)nn12.O=C(O)CC(O)(CC(=O)O)C(=O)O", "Inhibition": 21.4}, {"molecule": "CC(c1cc2ccccc2s1)N(O)C(N)=O", "note": "(centres undefined) [ZILEUTON]", "Inhibition": 10.68}, {"molecule": "CN(C)CCC[C@@]1(c2ccc(F)cc2)OCc2cc(C#N)ccc21.O=C(O)C(=O)O", "note": "[ESCITALOPRAM OXALATE]", "Inhibition": 14.48}, {"molecule": "CC(C)OC(=O)CCC/C=C\\C[C@@H]1[C@@H](CC[C@@H](O)CCc2ccccc2)[C@H](O)C[C@@H]1O", "note": "[LATANOPROST]", "Inhibition": 28.04}, {"molecule": "COc1cc(C)c(/C=C/C(C)=C/C=C/C(C)=C/C(=O)O)c(C)c1C", "note": "[ACITRETIN]", "Inhibition": 8.14}, {"molecule": "NS(=O)(=O)c1cc2c(cc1Cl)NCNS2(=O)=O", "note": "[HYDROCHLOROTHIAZIDE]", "Inhibition": 24.87}, {"molecule": "COc1cc2nc(N3CCN(C(=O)C4CCCO4)CC3)nc(N)c2cc1OC", "note": "(centres undefined) [TERAZOSIN]", "Inhibition": 18.79}, {"molecule": "O=C1c2c(O)cc(O)cc2O[C@H](c2ccc(O)c(O)c2)[C@H]1O", "note": "[(+)-TAXIFOLIN]", "Inhibition": 8.51}, {"molecule": "COC(=O)C1=C(C)NC(C)=C(C(=O)O[C@@H]2CCCN(Cc3ccccc3)C2)[C@@H]1c1cccc([N+](=O)[O-])c1.Cl", "Inhibition": 5.09}, {"molecule": "CN1CCN(c2nc3cc(C(F)(F)F)ccc3n3cccc23)CC1.O=C(O)/C=C\\C(=O)O.O=C(O)/C=C\\C(=O)O", "Inhibition": 3.28}, {"molecule": "C#C[C@]1(O)CC[C@H]2[C@@H]3CCc4cc(O)ccc4[C@H]3CC[C@@]21C", "note": "[ETHINYL ESTRADIOL]", "Inhibition": 24.62}, {"molecule": "Cl.c1ccc2c(c1)CCCC2C1=NCCN1", "note": "(centres undefined) [TETRAHYDROZOLINE HYDROCHLORIDE]", "Inhibition": 16.25}, {"molecule": "CCCC(=O)Nc1ccc(OCC(O)CNC(C)C)c(C(C)=O)c1.Cl", "note": "(centres undefined) [ACEBUTOLOL HYDROCHLORIDE]", "Inhibition": 17.91}, {"molecule": "CN(C)CCOC(c1ccc(Cl)cc1)c1ccccn1.O=C(O)/C=C\\C(=O)O", "note": "(centres undefined) [CARBINOXAMINE MALEATE]", "Inhibition": 33.6}, {"molecule": "CC(=O)[C@H]1CC[C@H]2[C@@H]3C[C@H](C)C4=CC(=O)CC[C@]4(C)[C@H]3[C@@H](O)C[C@]12C", "note": "[MEDRYSONE]", "Inhibition": 11.56}, {"molecule": "OCCN1CCN(CCCN2c3ccccc3Sc3ccc(Cl)cc32)CC1", "note": "[PERPHENAZINE]", "Inhibition": 19.54}, {"molecule": "Nc1ccc(S(=O)(=O)c2ccc(N)cc2)cc1", "note": "[DAPSONE]", "Inhibition": 2.33}, {"molecule": "O=C(CCCN1CC=C(n2c(=O)[nH]c3ccccc32)CC1)c1ccc(F)cc1", "note": "[DROPERIDOL]", "Inhibition": 15.21}, {"molecule": "CC(=O)S[C@@H]1CC2=CC(=O)CC[C@]2(C)[C@H]2CC[C@@]3(C)[C@@H](CC[C@@]34CCC(=O)O4)[C@H]12", "note": "[SPIRONOLACTONE]", "Inhibition": 30.58}, {"molecule": "COc1ccc(-c2oc3c(CC=C(C)C)c(O[C@@H]4O[C@H](CO)[C@@H](O)[C@H](O)[C@H]4O)cc(O)c3c(=O)c2O[C@@H]2O[C@@H](C)[C@H](O)[C@@H](O)[C@H]2O)cc1", "note": "[ICARIIN]", "Inhibition": 19.01}, {"molecule": "COc1ccc2cc(CCC(C)=O)ccc2c1", "note": "[NABUMETONE]", "Inhibition": 23.59}, {"molecule": "CN1CCCCC1CCN1c2ccccc2Sc2ccc([S+](C)[O-])cc21.O=S(=O)(O)c1ccccc1", "note": "(centres undefined) [MESORIDAZINE BESYLATE]", "Inhibition": 9.07}, {"molecule": "Cc1ncc([N+](=O)[O-])n1CCO", "note": "[METRONIDAZOLE]", "Inhibition": 26.53}, {"molecule": "CCN(Cc1ccncc1)C(=O)C(CO)c1ccccc1", "note": "(centres undefined) [TROPICAMIDE]", "Inhibition": 23.48}, {"molecule": "CCCCc1nc(Cl)c(CO)n1Cc1ccc(-c2ccccc2-c2nnn[n-]2)cc1.[K+]", "note": "[LOSARTAN POTASSIUM]", "Inhibition": 12.59}, {"molecule": "CNCCCCOc1ccccc1Cc1ccccc1.Cl", "Inhibition": 28.65}, {"molecule": "Nc1nc(=O)c2nc(CNc3ccc(C(=O)N[C@@H](CCC(=O)O)C(=O)O)cc3)cnc2[nH]1", "note": "[FOLIC ACID]", "Inhibition": 30.13}]}]}
